Data published in patent US20260193363A1.
These are yes or no findings as the source states them, for the method shown. A result given as binding can be weak or reduced; the word gives no strength.

Experiments:
[1] = molecular target: EGFRvIII extracellular domain, His-tagged (human); assay: ELISA with purified antibody at 5 ng/ml
[2] = molecular target: EGFRvIII extracellular domain, His-tagged (human); assay: ELISA, purified antibody at 5 ng/ml on His-tagged ECD, OD450
[3] = molecular target: EGFRvIII extracellular domain, His-tagged (human); assay: ELISA, hybridoma supernatant on His-tagged ECD on nickel-coated 96-well plate, OD450

| Binder | binding [1] | binding [2] | binding [3] |
| --- | --- | --- | --- |
| monoclonal antibody 3D10 (antibody, V domains shown) VH: QVQLKQSGPGLVQPSQSLSIICTVSGFSLTRNGVHWVRQSPGKGLEWVGVIWRSGRTDYDAAFMSRLSITKDNSKSQVFFKMNSLQADDTAIYYCVKNGDDGNYGTYWGQGTLVTVSA VL: DIVMSQSPSSLGVSVGEKVTMSCKSSQSLLDSRNQKNYLAWYQQKPGQSPKLLIYWASTRESGVPDRFTGSGSGTEFTLTISSVKAEDLAIYYCQQYYNYPYTFGGGTKLEIT | binds | binds | binds |
| monoclonal antibody 1D9 (antibody, V domains shown) VH: QVQLKQSGRSLVQPSQSLSITCTVSGFSLTDYGVHWIRQSPGKGLEWLGVIWRSGRTDYNAVFMSRLSITKDNSKSQVFFKMNGLQTDDTAIYYCAKNGPFGNFAGYWGQGTPVAVSA VL: DIVMSQSPSSLAVSVGEKVTMRCRSSQSLLDSYHQKNYLAWYLQKPGQSPKLLIYWASTRESGVPDRFTGSGSGTDFTLTISSVKAEDLAVYYCQEYYRYPYTFGGGTKLEIK | binds | binds | binds |

Second part, the binder after the results:

| binding [1] | binding [2] | binding [3] | Binder |
| --- | --- | --- | --- |
| binds | binds | binds | monoclonal antibody 9G11 (antibody, V domains shown) VH: QVQLKQSGPGLVQPSQSLSITCTVSGFSLTRNGVHWVRQSPGKGLEWVGVIWRGGRTDYDAAFMSRLSITKDNSKSQVFFKMNSLQADDTAIYYCVKNGDDGNYGTYWGQGTLVTVSA VL: DIVMSQSPSSLGVSVGEKVTMSCKSSQSLLDSRNQKNYLAWYQQKPGQSPKLLIYWASTRESGVPDRFTGSGSGTEFTLTISSVKAEDLAIYYCQQYYNYPYTFGGGTKLEIT |
| binds | binds | binds | monoclonal antibody 11E11 (antibody, V domains shown) VH: QVQLKQSGPSLVQPSQSLSITCTVSGFSLTNYGVHWIRQSPGKGLEWLGVKWRGGRTDYNAAFMSRLSITRDNSRSQVFFKMNSLQTDDTAIYYCAKNGPFGNFAGYWGQGTLVTVSA VL: DIVMSQSPSSLAVSVGEKVSLTCKSSQSLLDNQKHYLAWYQQKPGQSPKLLIYWASTRESGVPDRFTGSGSGTEFTLTISSVKAEDLAVYYCQQFYNYPYTFGGGTKLEIK |
| binds | binds | binds | monoclonal antibody 4A4 (antibody, V domains shown) VH: QVQLKQSGRSLVQPSQSLSITCTVSGFSLTDYGVHWIRQSPGKGLEWLGVIWRSGRTDYNAVFMSRLSITKDNSKSQVFFKMNGLLIEDTAIYYCAKNGPFGNFAGYWGQGTPVAVSA VL: DIVMSQSPSSLAVSVGEKVTMRCRSSQSLLDSYHQKNYLAWYLQKPGQSPKLLIYWASTRESGVPDRFTGSGSGTDFTLTISSVKAEDLAAYYCQEYYRYPYTFGGGTKLEIK |
